In article doi:10.1101/2024.10.02.616374:
Where two headings read alike, the source gives them in different places. Results are given in words; binding and its absence hold for the method and conditions named. Binding seen in cells or lysates may run through a third protein. Some entries that bind do so weakly or less than the wild type. Sequences can lack the tags named with a protein.

Experiments:
Experiment in all cases: co-IP
[1] = molecular target: T1, nicotinic acetylcholine receptor (nAChR) subunit α1, endogenously tagged with smGFP-V5 (α1^V5) (Drosophila (endogenous, tagged locus)) (UniProt P09478)
T1 sequence: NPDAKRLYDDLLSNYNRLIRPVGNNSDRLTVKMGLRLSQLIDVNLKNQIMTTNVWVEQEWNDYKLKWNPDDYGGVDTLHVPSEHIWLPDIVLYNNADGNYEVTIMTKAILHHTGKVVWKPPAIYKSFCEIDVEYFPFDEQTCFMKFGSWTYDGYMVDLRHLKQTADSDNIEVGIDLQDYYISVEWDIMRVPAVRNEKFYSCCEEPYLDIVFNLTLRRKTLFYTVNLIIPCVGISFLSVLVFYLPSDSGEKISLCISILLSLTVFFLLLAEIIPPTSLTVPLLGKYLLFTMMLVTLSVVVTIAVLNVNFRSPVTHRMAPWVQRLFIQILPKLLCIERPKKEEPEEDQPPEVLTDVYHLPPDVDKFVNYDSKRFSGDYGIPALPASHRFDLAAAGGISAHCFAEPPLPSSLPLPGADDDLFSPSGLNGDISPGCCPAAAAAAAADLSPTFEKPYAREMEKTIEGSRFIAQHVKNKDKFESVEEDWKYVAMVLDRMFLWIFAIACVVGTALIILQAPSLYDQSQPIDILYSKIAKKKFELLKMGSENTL

[2] = molecular target: T1, nicotinic acetylcholine receptor (nAChR) subunit α1, endogenously tagged with smGFP-V5 (α1^V5) (Drosophila (endogenous, tagged locus)); remark: listed apart in the source
[3] = molecular target: T2, nicotinic acetylcholine receptor (nAChR) subunit β1, endogenously tagged with smGFP-FLAG (β1^FLAG) (Drosophila (endogenous, tagged locus)) (UniProt P04755)
T2 sequence: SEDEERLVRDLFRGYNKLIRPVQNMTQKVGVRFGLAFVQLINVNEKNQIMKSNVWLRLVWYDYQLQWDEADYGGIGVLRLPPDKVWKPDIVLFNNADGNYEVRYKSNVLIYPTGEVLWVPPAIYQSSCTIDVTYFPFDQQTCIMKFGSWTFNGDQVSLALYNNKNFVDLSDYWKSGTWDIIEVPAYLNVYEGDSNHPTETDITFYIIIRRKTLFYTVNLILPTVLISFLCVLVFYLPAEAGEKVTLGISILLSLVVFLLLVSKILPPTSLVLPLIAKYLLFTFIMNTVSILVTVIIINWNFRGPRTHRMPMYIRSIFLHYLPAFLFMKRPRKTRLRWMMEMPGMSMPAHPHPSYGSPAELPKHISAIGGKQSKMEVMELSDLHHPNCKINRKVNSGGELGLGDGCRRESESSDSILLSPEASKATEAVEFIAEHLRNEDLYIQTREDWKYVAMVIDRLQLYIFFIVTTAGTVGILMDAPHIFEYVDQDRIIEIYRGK

[4] = molecular target: T2, nicotinic acetylcholine receptor (nAChR) subunit β1, endogenously tagged with smGFP-FLAG (β1^FLAG) (Drosophila (endogenous, tagged locus)); remark: listed apart in the source

B1: nicotinic acetylcholine receptor (nAChR) subunit β1, endogenously tagged with smGFP-FLAG (β1^FLAG) (receptor, UniProt P04755 25-521)
chain: SEDEERLVRDLFRGYNKLIRPVQNMTQKVGVRFGLAFVQLINVNEKNQIMKSNVWLRLVWYDYQLQWDEADYGGIGVLRLPPDKVWKPDIVLFNNADGNYEVRYKSNVLIYPTGEVLWVPPAIYQSSCTIDVTYFPFDQQTCIMKFGSWTFNGDQVSLALYNNKNFVDLSDYWKSGTWDIIEVPAYLNVYEGDSNHPTETDITFYIIIRRKTLFYTVNLILPTVLISFLCVLVFYLPAEAGEKVTLGISILLSLVVFLLLVSKILPPTSLVLPLIAKYLLFTFIMNTVSILVTVIIINWNFRGPRTHRMPMYIRSIFLHYLPAFLFMKRPRKTRLRWMMEMPGMSMPAHPHPSYGSPAELPKHISAIGGKQSKMEVMELSDLHHPNCKINRKVNSGGELGLGDGCRRESESSDSILLSPEASKATEAVEFIAEHLRNEDLYIQTREDWKYVAMVIDRLQLYIFFIVTTAGTVGILMDAPHIFEYVDQDRIIEIYRGK
binding [1]: binds | binding [2]: binds

B2: nicotinic acetylcholine receptor (nAChR) subunit α1, endogenously tagged with smGFP-V5 (α1^V5) (receptor, UniProt P09478 22-567)
chain: NPDAKRLYDDLLSNYNRLIRPVGNNSDRLTVKMGLRLSQLIDVNLKNQIMTTNVWVEQEWNDYKLKWNPDDYGGVDTLHVPSEHIWLPDIVLYNNADGNYEVTIMTKAILHHTGKVVWKPPAIYKSFCEIDVEYFPFDEQTCFMKFGSWTYDGYMVDLRHLKQTADSDNIEVGIDLQDYYISVEWDIMRVPAVRNEKFYSCCEEPYLDIVFNLTLRRKTLFYTVNLIIPCVGISFLSVLVFYLPSDSGEKISLCISILLSLTVFFLLLAEIIPPTSLTVPLLGKYLLFTMMLVTLSVVVTIAVLNVNFRSPVTHRMAPWVQRLFIQILPKLLCIERPKKEEPEEDQPPEVLTDVYHLPPDVDKFVNYDSKRFSGDYGIPALPASHRFDLAAAGGISAHCFAEPPLPSSLPLPGADDDLFSPSGLNGDISPGCCPAAAAAAAADLSPTFEKPYAREMEKTIEGSRFIAQHVKNKDKFESVEEDWKYVAMVLDRMFLWIFAIACVVGTALIILQAPSLYDQSQPIDILYSKIAKKKFELLKMGSENTL
binding [3]: binds | binding [4]: binds
